According to paper PMC9041834:
These are yes or no findings as the source states them, for the method shown. Binding seen in cells or lysates may run through a third protein. These calls come from enrichment with a bait or labelling near it, and not all partners need be listed.

By UniProt entry, the sequences of proteins in these tests, tags left out.
UniProt Q17551: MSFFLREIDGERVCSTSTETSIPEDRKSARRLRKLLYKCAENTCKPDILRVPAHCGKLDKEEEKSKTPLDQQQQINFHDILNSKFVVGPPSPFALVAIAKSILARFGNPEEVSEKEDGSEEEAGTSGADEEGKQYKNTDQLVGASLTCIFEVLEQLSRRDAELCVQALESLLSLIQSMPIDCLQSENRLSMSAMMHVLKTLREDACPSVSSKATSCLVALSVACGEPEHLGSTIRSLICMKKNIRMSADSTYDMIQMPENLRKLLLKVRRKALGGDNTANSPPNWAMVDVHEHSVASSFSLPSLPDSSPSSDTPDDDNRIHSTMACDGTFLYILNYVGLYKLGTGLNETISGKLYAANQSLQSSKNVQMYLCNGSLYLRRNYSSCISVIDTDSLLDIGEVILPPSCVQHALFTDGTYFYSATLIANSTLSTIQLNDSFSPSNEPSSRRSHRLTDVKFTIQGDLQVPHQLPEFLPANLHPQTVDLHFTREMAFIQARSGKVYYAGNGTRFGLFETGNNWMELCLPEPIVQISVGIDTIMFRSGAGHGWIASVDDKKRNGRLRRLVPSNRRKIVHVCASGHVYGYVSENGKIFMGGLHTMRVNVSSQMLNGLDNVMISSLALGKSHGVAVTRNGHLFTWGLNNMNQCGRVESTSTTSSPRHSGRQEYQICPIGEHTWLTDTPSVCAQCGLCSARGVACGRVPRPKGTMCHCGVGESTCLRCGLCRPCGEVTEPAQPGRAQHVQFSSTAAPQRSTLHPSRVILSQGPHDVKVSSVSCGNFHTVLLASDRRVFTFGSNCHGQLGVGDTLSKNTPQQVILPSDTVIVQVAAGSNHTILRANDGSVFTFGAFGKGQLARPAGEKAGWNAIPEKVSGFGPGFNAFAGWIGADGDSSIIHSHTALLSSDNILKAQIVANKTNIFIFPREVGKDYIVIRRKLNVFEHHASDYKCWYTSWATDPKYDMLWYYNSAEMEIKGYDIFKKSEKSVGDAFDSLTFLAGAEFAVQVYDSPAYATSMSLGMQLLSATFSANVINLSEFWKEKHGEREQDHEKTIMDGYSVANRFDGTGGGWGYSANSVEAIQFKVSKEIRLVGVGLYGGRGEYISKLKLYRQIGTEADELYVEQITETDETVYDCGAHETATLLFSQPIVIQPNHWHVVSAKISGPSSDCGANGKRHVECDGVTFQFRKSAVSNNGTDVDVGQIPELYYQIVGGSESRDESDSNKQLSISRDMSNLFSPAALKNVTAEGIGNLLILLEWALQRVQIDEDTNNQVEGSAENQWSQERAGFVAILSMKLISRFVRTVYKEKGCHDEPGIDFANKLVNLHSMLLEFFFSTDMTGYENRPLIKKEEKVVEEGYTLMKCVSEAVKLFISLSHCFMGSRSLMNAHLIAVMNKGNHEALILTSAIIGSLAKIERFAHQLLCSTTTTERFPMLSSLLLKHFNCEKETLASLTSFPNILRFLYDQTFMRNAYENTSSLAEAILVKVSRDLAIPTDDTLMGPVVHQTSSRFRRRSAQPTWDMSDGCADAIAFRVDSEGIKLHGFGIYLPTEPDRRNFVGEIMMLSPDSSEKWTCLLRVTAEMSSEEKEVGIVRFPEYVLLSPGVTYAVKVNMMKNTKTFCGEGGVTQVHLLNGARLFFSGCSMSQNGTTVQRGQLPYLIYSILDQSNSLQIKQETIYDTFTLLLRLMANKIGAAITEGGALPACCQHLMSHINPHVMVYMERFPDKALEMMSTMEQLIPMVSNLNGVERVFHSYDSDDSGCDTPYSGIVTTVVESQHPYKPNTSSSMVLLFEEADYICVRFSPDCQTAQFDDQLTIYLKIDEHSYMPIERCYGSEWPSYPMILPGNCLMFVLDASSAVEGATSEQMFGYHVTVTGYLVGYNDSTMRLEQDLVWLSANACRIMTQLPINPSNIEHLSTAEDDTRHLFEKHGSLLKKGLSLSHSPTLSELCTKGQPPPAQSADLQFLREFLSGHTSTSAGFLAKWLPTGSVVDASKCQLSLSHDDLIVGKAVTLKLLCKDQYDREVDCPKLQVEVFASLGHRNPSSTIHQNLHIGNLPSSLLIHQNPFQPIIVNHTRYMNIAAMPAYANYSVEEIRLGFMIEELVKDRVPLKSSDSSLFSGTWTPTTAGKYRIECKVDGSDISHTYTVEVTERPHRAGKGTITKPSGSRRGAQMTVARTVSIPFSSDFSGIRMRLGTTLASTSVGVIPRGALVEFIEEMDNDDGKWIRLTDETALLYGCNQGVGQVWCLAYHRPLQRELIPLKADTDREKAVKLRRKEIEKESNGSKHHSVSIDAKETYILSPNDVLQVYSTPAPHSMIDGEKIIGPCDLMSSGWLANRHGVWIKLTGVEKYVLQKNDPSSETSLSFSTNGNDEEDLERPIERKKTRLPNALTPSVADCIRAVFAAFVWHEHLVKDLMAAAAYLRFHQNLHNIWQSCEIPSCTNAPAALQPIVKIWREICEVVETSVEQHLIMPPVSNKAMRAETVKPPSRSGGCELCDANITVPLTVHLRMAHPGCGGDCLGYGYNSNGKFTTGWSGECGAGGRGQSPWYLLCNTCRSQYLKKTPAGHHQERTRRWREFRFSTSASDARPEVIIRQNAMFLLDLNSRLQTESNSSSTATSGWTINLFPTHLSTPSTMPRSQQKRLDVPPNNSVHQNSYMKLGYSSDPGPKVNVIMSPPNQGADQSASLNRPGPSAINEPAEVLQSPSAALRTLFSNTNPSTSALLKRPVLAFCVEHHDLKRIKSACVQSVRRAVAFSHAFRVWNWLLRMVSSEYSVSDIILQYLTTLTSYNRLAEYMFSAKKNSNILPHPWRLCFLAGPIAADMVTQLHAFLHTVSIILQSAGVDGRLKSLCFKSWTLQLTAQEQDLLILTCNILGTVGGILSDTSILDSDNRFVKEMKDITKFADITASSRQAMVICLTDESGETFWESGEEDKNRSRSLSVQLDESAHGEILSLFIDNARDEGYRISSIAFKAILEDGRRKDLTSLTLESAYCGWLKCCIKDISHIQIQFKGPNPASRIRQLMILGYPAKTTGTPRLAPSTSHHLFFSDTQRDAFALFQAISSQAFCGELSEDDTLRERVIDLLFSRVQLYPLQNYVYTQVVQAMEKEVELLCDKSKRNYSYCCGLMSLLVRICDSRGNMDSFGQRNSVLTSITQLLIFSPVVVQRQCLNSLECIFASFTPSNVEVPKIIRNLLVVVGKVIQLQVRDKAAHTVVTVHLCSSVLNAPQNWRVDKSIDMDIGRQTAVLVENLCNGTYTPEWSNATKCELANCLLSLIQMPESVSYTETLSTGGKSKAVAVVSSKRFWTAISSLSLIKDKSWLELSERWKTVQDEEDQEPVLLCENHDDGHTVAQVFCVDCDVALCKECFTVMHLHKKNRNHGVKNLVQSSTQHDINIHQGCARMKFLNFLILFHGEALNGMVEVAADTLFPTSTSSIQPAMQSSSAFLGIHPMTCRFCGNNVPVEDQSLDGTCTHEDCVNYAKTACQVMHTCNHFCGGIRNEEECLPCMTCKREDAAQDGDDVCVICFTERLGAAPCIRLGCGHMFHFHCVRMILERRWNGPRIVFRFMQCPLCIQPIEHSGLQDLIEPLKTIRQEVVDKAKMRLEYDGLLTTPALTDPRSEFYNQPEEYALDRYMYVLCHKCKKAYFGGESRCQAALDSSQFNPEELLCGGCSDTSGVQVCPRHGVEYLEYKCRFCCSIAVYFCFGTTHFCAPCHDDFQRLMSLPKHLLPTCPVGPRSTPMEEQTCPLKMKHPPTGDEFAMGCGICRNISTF

What was measured:
[1] = molecular target: GS::RPM-1 (wild-type RPM-1 fused to a protein G::Streptavidin binding peptide (GS) affinity tag) (C. elegans) (UniProt Q17551); experiment: affinity purification with mass spectrometry; GS-tagged baits (GS::RPM-1, GS::RPM-1 LD, GS::GFP) from transgenic mixed-stage C. elegans; cryomilled, lysed under varying detergent conditions; whole animal lysate (80 mg total protein) on IgG coupled Dynabeads, 4 h, 4°C; LC-MS/MS; 7 independent experiments
[2] = molecular target: GS::RPM-1 LD (RPM-1 ubiquitin ligase dead substrate trap fused to the GS affinity tag) (C. elegans) (UniProt Q17551); experiment: as above

Binder	binding [1]	binding [2]
GLO-4 (protein, UniProt Q5DX34 1-1386) MFFKRSTNSRKTSANSSSDTSTSSESLLLPLLNNTKAGARSQKGSVHRQSGKKARRKMMENPYVCSLELDELSADDSIIDYSVFSDDSFLLILLLTSKGDVQAYLETSRDTKPRKNVVNIKTACSLNVSPVTVCIGSQAAFAIFGLADGNLLVTPIRLLIDVTWGGSSWATTTVIDLSLPTVDPCLATPTCTKCFVSNFPPCTMAVVANKAGNILLVDLHLRKCVSELKAPQSLHQIDILLDENSIELLVTGFTGAQWIIPIERSGKGFREVLTTCVPSDLTVLEPATMQFFAADSCGVVALDTTESIVEVYNTFHSLAHSSKRTFKVPPETWMVHAGDNMLFTVSNDNEIRSALHFGFMSSRLEYTLVRTSTNWRPLGIVAMPSRPHKLAGIFVVNERGLVRVEQSTALNLTKIASEFFFRLSPLQLNSKSVAQVANACRIDTAEFQSALIPNLLSTRKNRQLTNKELSQIYSIAKAINLSMSDLLKAFENESIGEQLLPEVLNTIQTNPAKHDNLMQRVVEMFVKRSLSAEGNMDKIREYDAELSNFLARHEHLHKGSVDCAKAGMWKCTQTLVRRDVHETKSIDTSTEVLLYIIKNRLQIWNEANSTDRLQIMSLVCHLDWSKLADADGARVCAILSAWQRDISLPSYHEMCLRIAITNSDRFPRPCQILSLVSSIHILSEKKISNHANLPNFLPLAGGNNCGATITEDDRLMIWGNFTNAQQRMEMPQMNAKSKRSDSVTNGAPTLPPPAPKPEQHLPRVLEYPGGRPRAIACGAEHILVLSSSGQLSAWGGNRFGQCGVGHSFRIANLHQVDGDWPAIEKIACGQFHSAFICSDGSLWTFGWGVWGQLGHGGRNNSNQLVPTRVNGLICKVTQIACGRAHTVVLTDTGRVLVCGSGSYGQMGVDDDIKKVFAFTPLPLGPLRVRDIATHYYHSICITEDNRVFEWGRNPQELKMRMFVMKKIRSAQLKNTEDPSSPSPSTNGSTPRVNLNLPAEIPREDLGLREVKHFLDGNIVSVACGLSHSALITSEGTLYTWGKGLDYQLGHGNKNERMEPHQVFEPNGAKWVNVSLGNNHTIASTDDGSVFAWGKNDFGQCGVLTKKNGNSADVTKKFFFQARDGRRFMPNVDESQFVQKPGLIPDVRVRNLNEDGNEGVDKEEIVDRLKASDVNVVQAVSKHLYSPIEGKCNGSIIEDEPRNGKIQKQNKYDGEDGPLCTTTALVHLIAGDVKRAIRMIEWLKTDSSTCEKSLMVLSSLVWEVMANHEDVQSREALSAAFRHVPMSDSMRKGKQIAQLWPAVWNDERVQSSLSIDEKIAMLDGFTSASKPVSCPTIPSSSLEVSSKIRVYAQCAHAEPAAVGSPPECSTCLDEWTEKVRHTLGTQL	binds	binds
RAE-1 (protein, UniProt Q93454 1-373) MFGSSGFGNKSMFGGSNISTSTTTPAANTTQNDDFLVDGAPEDTIQVIKFSPTPQDKPMLACGSWDGTIRVWMFNDANTFEGKAQQNIPAPILDIAWIEDSSKIFIACADKEARLWDLASNQVAVVGTHDGPVKTCHWINGNNYQCLMTGSFDKTLRFWDMKNLPNQTQMAQIQLPERVYAADVLYPMAVVALANKHIKVYNLENGPTEVKDIESQLKFQIRCISIFKDKSNQNPAGFALGSIEGRVAVQYVDVANPKDNFTFKCHRSAELVNGFQEIYAVNDICFHPQHGTLVTIGSDGRYSMWDKDARTKLKTSEPHPMPLTCCDVHSSGAFLVYALGYDWSRGHEGNTQPGSKIVIHKCIEDMKPRPTKK	binds	binds
PPM-2 (enzyme, UniProt P49596 1-356) MGQTLSEPVTKKESASCANENYLVGSSCMQGWRVDMEDAHTHLLSLPDDPKCAFFAVYDGHGGSKVSQYSGINLHKKVVAQKEFSEGNMKEAIEKGFLELDQQMRVDEETKDDVSGTTAVVVLIKEGDVYCGNAGDSRAVSSVVGEARPLSFDHKPSHETEARRIIAAGGWVEFNRVNGNLALSRALGDFAFKNCDTKPAEEQIVTAFPDVITDKLTPDHEFIVLACDGIWDVMTNQEVVDFVREKLAEKRDPQSICEELLTRCLAPDCQMGGLGCDNMTVVLVGLLHGQSPDTLFTKCARPAVFTGVNNEDGDQNQIQQDISRVINNFDGEQRVNAANQEEEEDDNEPAPANFQV	binds	binds
UNC-51(ULK1) (enzyme, UniProt Q23023 1-856) MEQFDGFEYSKRDLLGHGAFAIVYRGRYVDRTDVPVAIKAIAKKNISKSKNLLTKEIKILKELSSLKHENLVGLLKCTETPTHVYLVMEFCNGGDLADYLQQKTTLNEDTIQHFVVQIAHALEAINKKGIVHRDLKPQNILLCNNSRTQNPHFTDIVIKLADFGFARFLNDGVMAATLCGSPMYMAPEVIMSMQYDAKADLWSIGTILFQCLTGKAPFVAQTPPQLKAYYEKTRELRPNIPEWCSPNLRDLLLRLLKRNAKDRISFEDFFNHPFLTSPLLPSPSKRILESARSPLLANRRIITPQSSLPVPKRAGSTKLDSPTPVRRIGESPRVQRRVITPGMPSPVPGAPMQESTDFTFLPPRQESSPVKQVQVHTNVSPSLTTCKPVPVPSQRLTYQKMEERLAAARKTAVPSSSSPTGSAVSAQHQHQHQQQQEPASSPVVQRIERPDQLPRRTTLQDPNAHDIERMTMPNPTFVVCGSSTKPSPNNANRVRRSTITSPADTQDMVAADQMLSNLDPTTTTTTIPKSATTANIQGIPRGARDRSVTSPPQPTIHENEPLDNAKYQQTDVNNSPTAPTEPFIIKNQTTCSTSSTSSSVVEEEEAMSLPFASGSHLAAGFKKTPAEVPMDHGALPPALDQEIVLGEEHKQILAKLRFVAELVDTLIHVAEQKDNPLASAMASRRQLLTTGTSTTNTSSPYRRAEQLVVYVRALHMLSSALLLAQTNVANRVLHPSVAVQQVLNQLNDKYHQCLVRSQELASLGLPGQDPAMAVISAERIMYRHAIELCQAAALDELFGNPQLCSQRYQTAYMMLHTLAEQVNCDQDKTVLTRYKVAVEKRLRILERQGFVAAVNT	binds	binds
FSN-1 F-box protein (protein, UniProt Q18223 1-332) MAENDGETIVPDEQCNLTASTPMKSSGLEQVESPKERKTSMVECDDEGNPSSGTPDESPKQLTPHSIPPRRRRSPRRPEVSASRLPLKVLNQIFQYLPLKDLRSAMLTCHSWNNALSMEDSDIWQYLLGKKLPEAAVSDPFLLAELGSAKKKLRAWYFAWNTSDISRNNYIRTNGFTVHRQPVAQSTDGVRGKRGISKGVHAFDITWDGPLGTVAVVGIATKHAALHCVGYVALLGSDDQSWGWNLVDNVLMHNGAQLGVYPKMNNPPKYEVGDKIRLIIDCDTHVAYFERNSEFLGIAFNHIPPLRLYPAVCAVYGNTEVTMVYVGSPQMG	binds	binds
